Measured values published in PubChem BioAssay AID624297 (National Center for Advancing Translational Sciences (NCATS), 2012).
The whole screen tested about 340,000 compounds, of which about 6,200 (1.8%) were called active. The shares of active, inactive and inconclusive entries below differ from those in the screen. The call rests on the fitted dose curve; in most records, active means well fitted activation curve with a large enough effect; inconclusive means small, poorly fitted or top-dose-only effect; inactive means no such curve, though single readings can be large or run the other way. Potencies of inconclusive entries are doubtful fits and often do not repeat.

Test: A quantitative high throughput screen for small molecules that induce DNA re-replication in SW480 colon adenocarcinoma cells. Further: nearly all actives have a fitted effect of over 55% in size. On re-replication activation: % of control where 0% means no effect.
Details: Hoechst DNA content imaging, 48 h; re-replication activation: at 46.1 µM (top of the series) unless noted
Outline: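 Per well, 250 cells were exposed to pinned compound for 48 hr. Nuclear DNA was visualised with Hoechst (40 min, 37 C) and total object intensity recorded by fluorescence scanning.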
Potency means the concentration at half of the fitted maximal effect.

Row | Structure (SMILES) | Potency | re-replication activation
1 | COc1ccc(CC(CN)c2ccccc2)cc1 (configuration not stated) | inconclusive: 0.0052 µM [activator, full curve, poor fit] | –
2 | N#CC1(Nc2ccc([N+](=O)[O-])cc2)CCCC1 | – | inactive: 8.16%
3 | O=C(Nc1nc2ccccc2s1)c1cc(-c2ccco2)nc2ccccc12 | inconclusive: 32.6 µM [activator, partial curve, poor fit] | –
4 | Nc1cc(=O)[nH]c(SCC(=O)N2CCCCC2)n1 | inconclusive: 18.4 µM [activator, single point] | –
5 | O=C1N(c2ccccc2)C(=Nc2ccccc2)SC12CC2 | inconclusive: 0.461 µM [activator, full curve, poor fit] | –
6 | Cc1ccc(NC(=O)C2CC(=O)Nc3ncnn32)c(C)c1 (configuration not stated) | inconclusive: 4.11 µM [activator, single point] | –
7 | CCOC(=O)N1CCN(C(=O)CS(=O)Cc2nc(-c3ccc(C)cc3)oc2C)CC1 (configuration not stated) | inconclusive: 11.6 µM [activator, partial curve, poor fit] | –
8 | Cc1noc(C)c1C(=O)N(C)Cc1ccccc1 | inconclusive: 7.31 µM [activator, partial curve, poor fit] | –
9 | C=C1CCC[C@]2(C)C[C@H]3OC(=O)C(CN4CC(C)OC(C)C4)[C@H]3C[C@@H]12 (some centres not stated) | inconclusive: 18.4 µM [activator, single point] | –
10 | Cc1ccccc1C(=O)Nc1cccc(NC(=O)c2cccnc2)c1 | – | inactive: -0.139%
11 | CN[C@H]1[C@@H](O)[C@@H](NC)[C@@H]2O[C@@]3(O)C(=O)C[C@@H](C)O[C@H]3O[C@H]2[C@H]1O | – | inactive: 5.18% [at 20.6 µM]
12 | O=C1N/C(=C\c2ccccc2)c2ccccc21 | inconclusive: 23.1 µM [activator, single point] | –
13 | Cc1ccc(NC(=O)c2ccc(NCCCN3CCOCC3)c([N+](=O)[O-])c2)cc1Cl | inconclusive: 32.6 µM [activator, partial curve, poor fit] | –
14 | C[C@]12CC[C@H](O)CC1=CCC1C2CC[C@@]2(C)C1CCC21OCCO1 (some centres not stated) | inconclusive: 20.6 µM [activator, single point] | –
15 | O=C(NCc1cccnc1)C(=O)Nc1nc(C23CC4CC(CC(C4)C2)C3)cs1 | inconclusive: 25.9 µM [activator, single point] | –
16 | CN1Cc2c(N3CCOCC3)nc3sc(C(=O)c4ccccc4)c(N)c3c2CC1(C)C | inconclusive: 18.4 µM [activator, partial curve, poor fit] | –
17 | CCC(C)Cn1cnc2c(SCc3ccccc3F)nc(N)nc21 (configuration not stated) | inconclusive: 16.4 µM [activator, single point] | –
18 | COC(=O)CCC/C=C1/SCC(NC(=O)c2ccccc2)/C1=N/O (configuration not stated) | inconclusive: 20.6 µM [activator, single point] | –
19 | CCCCn1c(N)c(N(C)C(=O)c2ccccc2Oc2ccccc2)c(=O)[nH]c1=O | inconclusive: 0.92 µM [activator, full curve, poor fit] | –
20 | COc1ccc(C(=O)C(=O)c2ccc(OCCO)cc2)cc1 | – | inactive: -9.82%
21 | COC(=O)c1ccc(/C=C/c2c(-c3ccc(OC)cc3)oc3ccc(N4CCOCC4)cc23)cc1 | inconclusive: 23.1 µM [activator, single point] | –

Single entries from the list.
Potency, `C=C1CCC[C@]2(C)C[C@H]3OC(=O)C(CN4CC(C)OC(C)C4)[C@H]3C[C@@H]12` (some centres not stated) reads inconclusive: 18.4 µM [activator, single point]
Potency, `CCC(C)Cn1cnc2c(SCc3ccccc3F)nc(N)nc21` (configuration not stated) reads inconclusive: 16.4 µM [activator, single point]

Following part:

Row | Structure (SMILES) | Potency | re-replication activation
22 | O=C(c1ccccc1)N1N=C(c2ccc(F)cc2)CC1(O)C(F)(F)F (configuration not stated) | – | inactive: -6.27%
23 | Cc1cc(C)c(NC(=O)CSc2nnnn2-c2cccnc2)c(C)c1 | – | inactive: -11.9%
24 | COc1ccc(CSC2=NCCN2)cc1Cl | inconclusive: 2.31 µM [activator, partial curve, poor fit] | –
25 | COc1cc(C(=O)N/C(=C\c2cn(C)c3ccccc23)C(=O)NCCN2CCOCC2)cc(OC)c1OC | inconclusive: 2.59 µM [activator, partial curve] | –
26 | O=C(Nc1ccccc1)N1CCN(c2nc3ccccc3s2)CC1 | – | inactive: 0.08%
27 | COc1cccc(NC(=S)N2CCN(c3ccc([N+](=O)[O-])cc3)CC2)c1 | – | inactive: -4.83%
28 | COc1ccc(C2CCCN2C(=S)Nc2cccc(Cl)c2)cc1OC (configuration not stated) | – | inactive: -1.28%
29 | COc1ccccc1N1CCN(C/C(O)=C(\C#N)c2nc(-c3ccccc3)cs2)CC1 | inconclusive: 29.1 µM [activator, single point] | –
30 | CCC(=O)Oc1ccc(C(=O)Nc2ccc3c(c2)C(=O)N(C2CCCCC2)C3=O)cc1 | inconclusive: 10.3 µM [activator, partial curve, poor fit] | –
31 | COCCn1c(C)cc(C(=O)COC(=O)c2cccnc2SC)c1C | inconclusive: 18.4 µM [activator, partial curve, poor fit] | –
32 | COc1ccc(C(CC(=O)NCCN2CCOCC2)NS(=O)(=O)c2ccc(C)cc2)cc1 (configuration not stated) | inconclusive: 16.4 µM [activator, partial curve, poor fit] | –
33 | CCOC(=O)C1CCN(C(=O)c2c(C)oc3c2C(=O)c2ccccc2C3=O)CC1 | active: 11.6 µM | –
34 | O=C(Nc1ccc([N+](=O)[O-])cc1)Nc1ccc(Cl)cc1F | inconclusive: 29.1 µM [activator, single point] | –
35 | COc1ccc(CCNC(=S)NC(=O)c2ccccc2)cc1C | inconclusive: 29.1 µM [activator, single point] | –
36 | CC(=O)NC1=C(C#N)C(c2ccccc2)c2c(ccc3ccccc23)O1 (configuration not stated) | inconclusive: 20.6 µM [activator, single point] | –
37 | N#CCSc1nc2ccc(N3CCCCC3)cc2c(=O)n1Cc1ccccc1 | active: 20.6 µM | –
38 | N#C/C(=N\Nc1ccc(S(=O)(=O)N2CCCCCC2)cc1)C(N)=S | – | inactive: -0.701%
39 | CCCCc1ccc(NC(=S)NCc2cccc(OC)c2)cc1 | inconclusive: 13 µM [activator, partial curve, poor fit] | –
40 | Cc1cc(-c2ccccc2)nc2oc(C(=O)NN)c(N)c12 | inconclusive: 18.4 µM [activator, partial curve] | –
41 | O=C(Nc1ncccn1)c1ccc([N+](=O)[O-])o1 | inconclusive: 0.517 µM [activator, full curve] | –
42 | COC(=O)c1ccc(/C=C/C(=O)c2ccc(OC)c(OC)c2)cc1 | inconclusive: 29.1 µM [activator, single point] | –
